Results are given in words; binding and its absence hold for the method and conditions named. Some results given as binding are weak or reduced against the parent protein; the word gives no strength. Where a sequence is shown, tags or fusion partners need not be part of it.
Target: T1, hexahistidine-tagged EME1 (human) (UniProt Q96AY2)
T1 sequence: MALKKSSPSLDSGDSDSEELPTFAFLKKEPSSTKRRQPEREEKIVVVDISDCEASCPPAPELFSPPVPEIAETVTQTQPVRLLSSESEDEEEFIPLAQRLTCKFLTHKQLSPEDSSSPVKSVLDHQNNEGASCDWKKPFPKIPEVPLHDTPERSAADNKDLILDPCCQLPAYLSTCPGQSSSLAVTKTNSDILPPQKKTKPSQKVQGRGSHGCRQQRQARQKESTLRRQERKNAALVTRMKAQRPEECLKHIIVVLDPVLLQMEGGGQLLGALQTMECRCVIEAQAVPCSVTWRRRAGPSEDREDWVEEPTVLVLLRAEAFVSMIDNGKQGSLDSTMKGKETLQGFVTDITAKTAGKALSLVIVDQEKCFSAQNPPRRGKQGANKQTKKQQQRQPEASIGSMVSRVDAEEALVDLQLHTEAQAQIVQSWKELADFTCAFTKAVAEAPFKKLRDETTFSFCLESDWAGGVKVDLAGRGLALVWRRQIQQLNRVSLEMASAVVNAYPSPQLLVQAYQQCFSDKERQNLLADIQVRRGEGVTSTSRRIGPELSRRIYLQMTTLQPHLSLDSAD
Test: co-purification (nickel affinity, ion exchange, gel filtration); MUS81 (non-tagged) and His6-EME1 co-expressed in High Five insect cells; extract passed over a HiTrap chelating column charged with nickel, a Mono S and/or a Superdex 200 column; traced by SDS-PAGE and western blot

B1: MUS81 (protein, UniProt Q96NY9 1-551)
chain: MAAPVRLGRKRPLPACPNPLFVRWLTEWRDEATRSRRRTRFVFQKALRSLRRYPLPLRSGKEAKILQHFGDGLCRMLDERLQRHRTSGGDHAPDSPSGENSPAPQGRLAEVQDSSMPVPAQPKAGGSGSYWPARHSGARVILLVLYREHLNPNGHHFLTKEELLQRCAQKSPRVAPGSARPWPALRSLLHRNLVLRTHQPARYSLTPEGLELAQKLAESEGLSLLNVGIGPKEPPGEETAVPGAASAELASEAGVQQQPLELRPGEYRVLLCVDIGETRGGGHRPELLRELQRLHVTHTVRKLHVGDFVWVAQETNPRDPANPGELVLDHIVERKRLDDLCSSIIDGRFREQKFRLKRCGLERRVYLVEEHGSVHNLSLPESTLLQAVTNTQVIDGFFVKRTADIKESAAYLALLTRGLQRLYQGHTLRSRPWGTPGNPESGAMTSPNPLCSLLTFSDFNAGAIKNKAQSVREVFARQLMQVRGVSGEKAAALVDRYSTPASLLAAYDACATPKEQETLLSTIKCGRLQRNLGPALSRTLSQLYCSYGPLT
binding: binds
